Data on four molecules can be found in paper PMC11387620.

Sequences of proteins named here, by UniProt entry; tags and fusion partners are left off.
UniProt P26196: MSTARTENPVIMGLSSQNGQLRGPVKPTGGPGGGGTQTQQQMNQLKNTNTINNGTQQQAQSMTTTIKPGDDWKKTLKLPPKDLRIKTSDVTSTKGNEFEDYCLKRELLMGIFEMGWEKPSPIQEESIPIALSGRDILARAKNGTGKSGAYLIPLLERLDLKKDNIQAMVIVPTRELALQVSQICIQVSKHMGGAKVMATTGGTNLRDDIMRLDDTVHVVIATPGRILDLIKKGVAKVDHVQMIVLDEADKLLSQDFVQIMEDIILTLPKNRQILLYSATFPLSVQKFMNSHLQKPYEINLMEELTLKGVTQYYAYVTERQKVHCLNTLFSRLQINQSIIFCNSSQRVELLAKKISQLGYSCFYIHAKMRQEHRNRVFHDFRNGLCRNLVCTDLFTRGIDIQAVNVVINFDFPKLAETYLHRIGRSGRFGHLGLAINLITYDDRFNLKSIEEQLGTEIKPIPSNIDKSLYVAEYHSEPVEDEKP
UniProt Q96F86: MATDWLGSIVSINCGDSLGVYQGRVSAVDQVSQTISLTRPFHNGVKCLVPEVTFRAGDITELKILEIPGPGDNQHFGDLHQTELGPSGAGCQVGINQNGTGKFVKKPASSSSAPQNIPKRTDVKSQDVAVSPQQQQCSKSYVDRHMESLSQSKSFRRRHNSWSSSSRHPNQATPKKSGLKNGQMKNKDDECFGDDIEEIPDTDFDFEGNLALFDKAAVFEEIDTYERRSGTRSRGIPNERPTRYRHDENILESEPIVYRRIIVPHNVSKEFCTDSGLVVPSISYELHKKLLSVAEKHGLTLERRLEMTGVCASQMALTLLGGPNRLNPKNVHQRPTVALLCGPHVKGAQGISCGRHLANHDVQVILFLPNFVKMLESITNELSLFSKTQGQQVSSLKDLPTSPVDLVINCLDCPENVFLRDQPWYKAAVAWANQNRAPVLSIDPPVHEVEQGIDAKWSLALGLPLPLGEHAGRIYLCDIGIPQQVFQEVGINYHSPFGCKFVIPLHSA

In assay [1] the target is DDX6 (human (endogenous in HCT116)) (UniProt P26196). The experiment in a line: affinity purification with mass spectrometry; endogenous DDX6 immunoprecipitated from HCT116 lysates (control, DCP1a KO, DCP1b KO), IgG control, LC/MS/MS, three replicas.
In assay [2] the target is T1, DCP1a (human (endogenous in HCT116)) (UniProt Q9NPI6).
T1 sequence: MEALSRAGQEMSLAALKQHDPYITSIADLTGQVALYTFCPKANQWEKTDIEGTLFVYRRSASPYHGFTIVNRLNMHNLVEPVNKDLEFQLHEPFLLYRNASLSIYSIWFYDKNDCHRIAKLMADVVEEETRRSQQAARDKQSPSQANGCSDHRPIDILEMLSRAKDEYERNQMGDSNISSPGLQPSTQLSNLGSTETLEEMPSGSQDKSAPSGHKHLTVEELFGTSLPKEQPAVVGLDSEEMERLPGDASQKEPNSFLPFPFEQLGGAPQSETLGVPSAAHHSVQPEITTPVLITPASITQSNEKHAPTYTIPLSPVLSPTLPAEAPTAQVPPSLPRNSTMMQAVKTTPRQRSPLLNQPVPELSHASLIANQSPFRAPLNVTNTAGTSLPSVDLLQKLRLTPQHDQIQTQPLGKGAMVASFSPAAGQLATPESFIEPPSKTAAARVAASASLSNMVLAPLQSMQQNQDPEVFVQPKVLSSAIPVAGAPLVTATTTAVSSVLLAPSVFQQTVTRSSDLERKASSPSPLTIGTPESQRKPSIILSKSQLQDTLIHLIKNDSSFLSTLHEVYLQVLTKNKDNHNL
The experiment in a line: affinity purification with mass spectrometry; endogenous DCP1a immunoprecipitated from HCT116 lysates (270 ug protein; control and DCP1b KO cells), IgG control, LC/MS/MS, two replicas.

Assay [3] deals with T2, DCP1b (human (endogenous in HCT116)) (UniProt Q8IZD4).
T2 sequence: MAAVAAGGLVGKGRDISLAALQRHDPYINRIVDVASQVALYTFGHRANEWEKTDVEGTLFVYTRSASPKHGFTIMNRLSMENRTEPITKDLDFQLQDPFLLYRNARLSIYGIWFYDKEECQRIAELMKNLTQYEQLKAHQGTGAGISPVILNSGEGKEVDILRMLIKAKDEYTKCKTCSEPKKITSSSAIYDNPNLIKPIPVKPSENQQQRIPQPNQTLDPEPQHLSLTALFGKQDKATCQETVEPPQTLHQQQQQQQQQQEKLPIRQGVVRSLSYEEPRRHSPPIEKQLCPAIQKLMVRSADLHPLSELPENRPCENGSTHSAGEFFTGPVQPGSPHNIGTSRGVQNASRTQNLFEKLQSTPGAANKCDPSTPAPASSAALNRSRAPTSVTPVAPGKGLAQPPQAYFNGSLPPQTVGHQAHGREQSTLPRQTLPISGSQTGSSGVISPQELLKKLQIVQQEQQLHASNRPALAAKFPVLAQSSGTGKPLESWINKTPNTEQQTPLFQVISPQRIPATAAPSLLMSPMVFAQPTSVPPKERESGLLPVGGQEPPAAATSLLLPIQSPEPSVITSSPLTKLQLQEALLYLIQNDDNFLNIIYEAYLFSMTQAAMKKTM
Nature of the assay: affinity purification with mass spectrometry; endogenous DCP1b immunoprecipitated from HCT116 lysates (270 ug protein; control and DCP1a KO polyclonal pool), IgG control, LC/MS/MS, two replicas.

No constants are given. Whether binding was seen depends on the method and setting. Binding seen in cells or lysates may run through a third protein. These calls come from enrichment with a bait or labelling near it, and not all partners need be listed.

EDC3 (from UniProt Q96F86 1-508): the binding entry in assay [1], in assay [2] and in assay [3] was “binds” in each case.

In the case of SLIRP (human (endogenous in HCT116)), the binding result in assay [3] was “binds”.

B1: TERF2IP (protein, UniProt Q9NYB0 1-399)
chain: MAEAMDLGKDPNGPTHSSTLFVRDDGSSMSFYVRPSPAKRRLSTLILHGGGTVCRVQEPGAVLLAQPGEALAEASGDFISTQYILDCVERNERLELEAYRLGPASAADTGSEAKPGALAEGAAEPEPQRHAGRIAFTDADDVAILTYVKENARSPSSVTGNALWKAMEKSSLTQHSWQSLKDRYLKHLRGQEHKYLLGDAPVSPSSQKLKRKAEEDPEAADSGEPQNKRTPDLPEEEYVKEEIQENEEAVKKMLVEATREFEEVVVDESPPDFEIHITMCDDDPPTPEEDSETQPDEEEEEEEEKVSQPEVGAAIKIIRQLMEKFNLDLSTVTQAFLKNSGELEATSAFLASGQRADGYPIWSRQDDIDLQKDDEDTREALVKKFGAQNVARRIEFRKK
Turning to B1, the binding entry in assay [2] and in assay [3] was “binds” each time.

B2: DCP1b (protein, UniProt Q8IZD4 1-617)
chain: MAAVAAGGLVGKGRDISLAALQRHDPYINRIVDVASQVALYTFGHRANEWEKTDVEGTLFVYTRSASPKHGFTIMNRLSMENRTEPITKDLDFQLQDPFLLYRNARLSIYGIWFYDKEECQRIAELMKNLTQYEQLKAHQGTGAGISPVILNSGEGKEVDILRMLIKAKDEYTKCKTCSEPKKITSSSAIYDNPNLIKPIPVKPSENQQQRIPQPNQTLDPEPQHLSLTALFGKQDKATCQETVEPPQTLHQQQQQQQQQQEKLPIRQGVVRSLSYEEPRRHSPPIEKQLCPAIQKLMVRSADLHPLSELPENRPCENGSTHSAGEFFTGPVQPGSPHNIGTSRGVQNASRTQNLFEKLQSTPGAANKCDPSTPAPASSAALNRSRAPTSVTPVAPGKGLAQPPQAYFNGSLPPQTVGHQAHGREQSTLPRQTLPISGSQTGSSGVISPQELLKKLQIVQQEQQLHASNRPALAAKFPVLAQSSGTGKPLESWINKTPNTEQQTPLFQVISPQRIPATAAPSLLMSPMVFAQPTSVPPKERESGLLPVGGQEPPAAATSLLLPIQSPEPSVITSSPLTKLQLQEALLYLIQNDDNFLNIIYEAYLFSMTQAAMKKTM
For B2, the binding entry in assay [1] and in assay [2] was “binds” in each case.
